Measured data: PubChem BioAssay AID1259308 (NCATS, 2017)

Purpose: 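Genes whose loss raises luciferase production in HEK293 cells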 (primary screen)
Cells: human HEK293 embryonic kidney cells stably expressing firefly luciferase (HEK-CMV-Luc2-Hygro)
Knock-down reagent: single siRNA against human genes, 0.8 pmol siRNA per well
Timing: 72 h
Measured: 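Luciferase light (ONE-Glo) measured on one replicate plate set and viability (CellTiter-Glo) on the other, scaled to a negative control siRNA, with robust z-scores and luciferase per cell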
Direction: total luciferase, z-score and total luciferase, % of control: higher = more reporter protein produced; luciferase per cell, z-score: higher = more reporter output per viable cell; viable cells, % of control: higher = more viable cells
Call rule: 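Active when the median/MAD z-score for overall luciferase is greater than 3; a gene was taken forward for validation with new siRNAs if at least two of its three siRNAs passed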
Calls: active = raised luciferase; inactive = no rise
In all, the deposit lists about 59,000 reagents; below is a part drawn at random. About 1,510 of them (2.6%) were called active. 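Calls use total luciferase alone and ignore viability, so some active siRNAs may act by altering cell number.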 A number with no mark means an inactive call. Reagents against one gene are numbered here.

| target gene | reagent no. | total luciferase, z-score | total luciferase, % of control | luciferase per cell, z-score | viable cells, % of control |
| --- | --- | --- | --- | --- | --- |
| ADPRM (GeneID 56985) | 1 | 0.229 | 86.4 | 0.398 | 87 |
| ADPRM (GeneID 56985) | 2 | -1.65 | 49 | -1.85 | 89.2 |
| ADPRM (GeneID 56985) | 3 | 0.433 | 90.5 | -0.598 | 118 |
| RBM28 (GeneID 55131) | 1 | -0.32 | 75.5 | -0.373 | 93.1 |
| RBM28 (GeneID 55131) | 2 | -1.09 | 60.3 | -0.978 | 87.2 |
| RBM28 (GeneID 55131) | 3 | -1.06 | 60.8 | -1.16 | 92.2 |
| ZNF527 (GeneID 84503) | 1 | -2.01 | 42 | -1.09 | 62.5 |
| ZNF527 (GeneID 84503) | 2 | 0.0443 | 82.8 | -0.372 | 102 |
| ZNF527 (GeneID 84503) | 3 | 1.32 | 108 | 2.01 | 71.1 |
| DKK3 (GeneID 27122) | 1 | 0.841 | 98.6 | 0.598 | 94.1 |
| DKK3 (GeneID 27122) | 2 | -2.59 | 30.3 | -3.37 | 82.3 |
| DKK3 (GeneID 27122) | 3 | -0.153 | 78.8 | 0.324 | 80.9 |
| CREG2 (GeneID 200407) | 1 | -0.821 | 65.6 | -0.481 | 83.2 |
| CREG2 (GeneID 200407) | 2 | -0.0901 | 80.1 | 0.00603 | 89.4 |
| CREG2 (GeneID 200407) | 3 | 0.721 | 96.2 | 0.778 | 87.6 |

In a second layout: 6 of the entries above
{"target gene": "ADPRM (GeneID 56985)", "reagent no.": 3, "total luciferase, z-score": 0.433, "total luciferase, % of control": 90.5, "luciferase per cell, z-score": -0.598, "viable cells, % of control": 118}
{"target gene": "RBM28 (GeneID 55131)", "reagent no.": 1, "total luciferase, z-score": -0.32, "total luciferase, % of control": 75.5, "luciferase per cell, z-score": -0.373, "viable cells, % of control": 93.1}
{"target gene": "RBM28 (GeneID 55131)", "reagent no.": 2, "total luciferase, z-score": -1.09, "total luciferase, % of control": 60.3, "luciferase per cell, z-score": -0.978, "viable cells, % of control": 87.2}
{"target gene": "RBM28 (GeneID 55131)", "reagent no.": 3, "total luciferase, z-score": -1.06, "total luciferase, % of control": 60.8, "luciferase per cell, z-score": -1.16, "viable cells, % of control": 92.2}
{"target gene": "ZNF527 (GeneID 84503)", "reagent no.": 1, "total luciferase, z-score": -2.01, "total luciferase, % of control": 42, "luciferase per cell, z-score": -1.09, "viable cells, % of control": 62.5}
{"target gene": "ZNF527 (GeneID 84503)", "reagent no.": 2, "total luciferase, z-score": 0.0443, "total luciferase, % of control": 82.8, "luciferase per cell, z-score": -0.372, "viable cells, % of control": 102}

The list goes on.
| target gene | reagent no. | total luciferase, z-score | total luciferase, % of control | luciferase per cell, z-score | viable cells, % of control |
| --- | --- | --- | --- | --- | --- |
| LINC-PINT (GeneID 378805) | 1 | 1.53 | 112 | 1.36 | 87.6 |
| LINC-PINT (GeneID 378805) | 2 | 0.688 | 95.6 | 0.974 | 82.7 |
| LINC-PINT (GeneID 378805) | 3 | -1.23 | 57.3 | -0.496 | 73 |
| LINC-PINT (GeneID 378805) | 4 | 1.17 | 105 | 0.826 | 94.6 |
| LINC-PINT (GeneID 378805) | 5 | 0.215 | 86.2 | 0.418 | 86.2 |
| LINC-PINT (GeneID 378805) | 6 | 0.215 | 86.2 | 0.13 | 93.1 |
| DGKE (GeneID 8526) | 1 | 0.945 | 101 | 0.456 | 99.8 |
| DGKE (GeneID 8526) | 2 | 0.208 | 86 | -0.408 | 107 |
| DGKE (GeneID 8526) | 3 | -0.883 | 64.3 | -0.914 | 91.4 |
| KLHL14 (GeneID 57565) | 1 | -0.246 | 77 | -0.225 | 91.3 |
| KLHL14 (GeneID 57565) | 2 | 3.1 (active) | 143 | 4.25 | 52.4 |
| KLHL14 (GeneID 57565) | 3 | -0.251 | 76.9 | -0.433 | 96.3 |
| RCCD1 (GeneID 91433) | 1 | -0.437 | 73.2 | -0.417 | 91.3 |
| RCCD1 (GeneID 91433) | 2 | -0.829 | 65.4 | -0.361 | 80.4 |
| RCCD1 (GeneID 91433) | 3 | -0.254 | 76.8 | -0.371 | 94.7 |
| OIP5-AS1 (GeneID 729082) | 1 | 0.919 | 100 | 1.11 | 83.5 |
| OIP5-AS1 (GeneID 729082) | 2 | 2.76 | 137 | 2.7 | 75 |
| OIP5-AS1 (GeneID 729082) | 3 | -0.0696 | 80.5 | -0.153 | 93.7 |
| HLA-DOA (GeneID 3111) | 1 | -0.241 | 77.1 | -0.715 | 104 |
| HLA-DOA (GeneID 3111) | 2 | -0.304 | 75.8 | -0.76 | 104 |
| HLA-DOA (GeneID 3111) | 3 | 0.266 | 87.2 | -0.0479 | 98.7 |
| PLGRKT (GeneID 55848) | 1 | 0.817 | 98.1 | 0.859 | 87.5 |
| PLGRKT (GeneID 55848) | 2 | -0.0678 | 80.5 | 0.00302 | 89.9 |
| PLGRKT (GeneID 55848) | 3 | -1.14 | 59.1 | -1.1 | 88.3 |
